Data from the supplement of paper PMC10849652.
The list shows a part of the results.

Protein sequences, listed by entry. Tags and fused reporters are not part of them. Lines headed by an entry give the natural chain unless they say otherwise; changes in a name come on top.
UniProt Q7L2H7, whole entry, looked up: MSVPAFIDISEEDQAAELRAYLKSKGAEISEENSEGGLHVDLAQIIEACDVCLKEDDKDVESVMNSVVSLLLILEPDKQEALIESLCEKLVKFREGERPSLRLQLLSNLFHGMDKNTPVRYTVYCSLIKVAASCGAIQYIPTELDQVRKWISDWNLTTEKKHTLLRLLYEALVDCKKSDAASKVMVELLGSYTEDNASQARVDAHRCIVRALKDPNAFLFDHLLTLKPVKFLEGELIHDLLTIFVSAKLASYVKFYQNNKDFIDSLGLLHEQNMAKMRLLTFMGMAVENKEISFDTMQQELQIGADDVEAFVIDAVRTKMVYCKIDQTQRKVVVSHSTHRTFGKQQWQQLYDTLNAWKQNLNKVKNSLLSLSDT
UniProt P57772: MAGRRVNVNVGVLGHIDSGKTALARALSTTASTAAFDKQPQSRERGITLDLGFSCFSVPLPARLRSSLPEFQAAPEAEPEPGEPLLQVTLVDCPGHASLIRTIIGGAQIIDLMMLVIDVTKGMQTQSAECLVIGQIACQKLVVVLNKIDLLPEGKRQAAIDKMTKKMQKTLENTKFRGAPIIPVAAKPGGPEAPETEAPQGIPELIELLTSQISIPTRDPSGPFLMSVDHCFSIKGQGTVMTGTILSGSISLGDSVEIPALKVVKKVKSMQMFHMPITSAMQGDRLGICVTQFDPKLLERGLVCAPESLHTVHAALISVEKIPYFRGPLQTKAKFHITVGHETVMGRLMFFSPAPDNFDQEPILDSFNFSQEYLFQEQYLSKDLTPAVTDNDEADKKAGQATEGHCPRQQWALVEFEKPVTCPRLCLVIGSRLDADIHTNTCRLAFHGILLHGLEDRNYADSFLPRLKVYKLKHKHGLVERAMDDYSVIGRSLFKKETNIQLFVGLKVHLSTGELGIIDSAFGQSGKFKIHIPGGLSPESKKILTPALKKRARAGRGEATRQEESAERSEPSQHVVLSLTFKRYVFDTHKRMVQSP
UniProt P20042, whole entry, looked up: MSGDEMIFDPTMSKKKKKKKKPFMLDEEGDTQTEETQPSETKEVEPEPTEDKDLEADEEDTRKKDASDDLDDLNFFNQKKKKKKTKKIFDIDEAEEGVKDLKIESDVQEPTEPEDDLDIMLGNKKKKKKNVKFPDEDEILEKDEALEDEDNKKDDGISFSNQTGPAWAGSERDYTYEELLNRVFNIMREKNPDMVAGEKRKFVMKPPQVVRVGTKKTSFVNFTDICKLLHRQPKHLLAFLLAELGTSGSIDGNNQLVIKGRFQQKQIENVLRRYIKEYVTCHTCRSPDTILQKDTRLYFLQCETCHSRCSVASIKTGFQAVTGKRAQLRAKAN
UniProt O15371, whole entry, looked up: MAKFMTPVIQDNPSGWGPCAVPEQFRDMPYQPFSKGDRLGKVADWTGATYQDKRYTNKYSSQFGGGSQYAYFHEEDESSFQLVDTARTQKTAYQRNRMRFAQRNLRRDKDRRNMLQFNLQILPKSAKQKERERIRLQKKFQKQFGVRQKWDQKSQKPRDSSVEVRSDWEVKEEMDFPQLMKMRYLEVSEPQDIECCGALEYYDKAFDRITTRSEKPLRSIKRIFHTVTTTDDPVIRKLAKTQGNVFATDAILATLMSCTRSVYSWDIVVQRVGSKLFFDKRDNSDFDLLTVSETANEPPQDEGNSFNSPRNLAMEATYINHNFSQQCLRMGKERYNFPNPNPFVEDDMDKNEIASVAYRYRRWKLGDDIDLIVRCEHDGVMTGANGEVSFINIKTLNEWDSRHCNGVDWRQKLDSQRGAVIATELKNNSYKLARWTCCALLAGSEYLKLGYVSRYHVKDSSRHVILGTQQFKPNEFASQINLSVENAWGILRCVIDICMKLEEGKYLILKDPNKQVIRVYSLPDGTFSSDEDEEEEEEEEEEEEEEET
UniProt P78344: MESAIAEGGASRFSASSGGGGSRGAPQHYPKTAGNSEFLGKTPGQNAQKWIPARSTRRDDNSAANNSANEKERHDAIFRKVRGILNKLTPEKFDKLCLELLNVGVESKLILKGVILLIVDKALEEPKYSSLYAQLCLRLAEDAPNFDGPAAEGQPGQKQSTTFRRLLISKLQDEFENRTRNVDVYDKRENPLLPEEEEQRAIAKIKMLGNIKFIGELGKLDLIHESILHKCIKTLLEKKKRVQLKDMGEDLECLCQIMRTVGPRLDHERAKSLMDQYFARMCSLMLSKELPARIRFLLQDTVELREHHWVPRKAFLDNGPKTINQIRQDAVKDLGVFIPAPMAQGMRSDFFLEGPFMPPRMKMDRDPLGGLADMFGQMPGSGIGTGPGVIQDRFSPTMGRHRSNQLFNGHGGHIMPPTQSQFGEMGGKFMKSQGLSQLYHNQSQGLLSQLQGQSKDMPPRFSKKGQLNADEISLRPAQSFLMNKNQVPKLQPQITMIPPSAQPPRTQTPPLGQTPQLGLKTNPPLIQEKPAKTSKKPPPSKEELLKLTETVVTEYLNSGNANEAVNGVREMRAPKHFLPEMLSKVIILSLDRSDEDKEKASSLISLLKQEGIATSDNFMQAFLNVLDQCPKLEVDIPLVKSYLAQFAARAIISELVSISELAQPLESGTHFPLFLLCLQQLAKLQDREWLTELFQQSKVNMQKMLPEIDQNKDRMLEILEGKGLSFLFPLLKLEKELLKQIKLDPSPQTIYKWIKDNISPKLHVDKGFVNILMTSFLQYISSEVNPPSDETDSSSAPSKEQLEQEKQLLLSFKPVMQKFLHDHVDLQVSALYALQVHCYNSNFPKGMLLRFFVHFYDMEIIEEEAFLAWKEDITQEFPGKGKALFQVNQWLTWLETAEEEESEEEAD
UniProt O43402: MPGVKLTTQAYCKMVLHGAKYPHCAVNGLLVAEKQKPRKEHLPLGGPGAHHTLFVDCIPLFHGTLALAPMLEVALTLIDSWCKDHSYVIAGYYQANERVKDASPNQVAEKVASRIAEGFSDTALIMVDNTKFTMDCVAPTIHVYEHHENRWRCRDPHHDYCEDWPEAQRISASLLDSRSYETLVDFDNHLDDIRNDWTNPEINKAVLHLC
UniProt P11171, whole entry, looked up: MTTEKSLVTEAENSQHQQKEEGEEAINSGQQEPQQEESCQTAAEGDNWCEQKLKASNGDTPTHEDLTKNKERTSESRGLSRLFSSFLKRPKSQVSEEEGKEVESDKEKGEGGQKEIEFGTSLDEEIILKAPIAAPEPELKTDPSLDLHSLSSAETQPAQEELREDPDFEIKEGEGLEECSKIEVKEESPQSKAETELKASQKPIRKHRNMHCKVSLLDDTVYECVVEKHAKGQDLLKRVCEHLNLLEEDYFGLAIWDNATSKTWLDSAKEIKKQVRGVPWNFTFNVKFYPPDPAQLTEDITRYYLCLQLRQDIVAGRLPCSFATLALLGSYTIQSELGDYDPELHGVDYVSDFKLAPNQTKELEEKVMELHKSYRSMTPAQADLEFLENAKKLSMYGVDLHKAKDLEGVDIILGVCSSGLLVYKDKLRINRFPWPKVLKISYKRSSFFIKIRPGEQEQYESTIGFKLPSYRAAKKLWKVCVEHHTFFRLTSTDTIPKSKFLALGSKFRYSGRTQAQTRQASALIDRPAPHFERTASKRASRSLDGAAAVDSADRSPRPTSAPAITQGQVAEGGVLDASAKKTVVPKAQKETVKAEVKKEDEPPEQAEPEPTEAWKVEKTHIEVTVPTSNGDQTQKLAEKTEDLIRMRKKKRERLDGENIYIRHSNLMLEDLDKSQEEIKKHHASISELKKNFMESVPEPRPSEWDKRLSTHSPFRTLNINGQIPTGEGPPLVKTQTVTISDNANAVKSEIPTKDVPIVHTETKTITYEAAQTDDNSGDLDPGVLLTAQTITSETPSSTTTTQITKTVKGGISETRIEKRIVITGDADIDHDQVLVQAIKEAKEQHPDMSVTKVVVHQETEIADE
UniProt P98172: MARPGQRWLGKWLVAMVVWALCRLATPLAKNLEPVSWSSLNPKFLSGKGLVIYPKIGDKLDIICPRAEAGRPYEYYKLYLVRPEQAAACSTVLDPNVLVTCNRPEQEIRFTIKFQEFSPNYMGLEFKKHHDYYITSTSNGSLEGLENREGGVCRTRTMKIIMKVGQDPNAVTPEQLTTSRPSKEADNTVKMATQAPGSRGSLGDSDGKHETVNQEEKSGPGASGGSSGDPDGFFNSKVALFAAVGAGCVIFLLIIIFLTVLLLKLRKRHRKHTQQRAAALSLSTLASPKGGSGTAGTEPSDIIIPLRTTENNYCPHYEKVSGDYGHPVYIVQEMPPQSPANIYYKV
UniProt Q8N9N8: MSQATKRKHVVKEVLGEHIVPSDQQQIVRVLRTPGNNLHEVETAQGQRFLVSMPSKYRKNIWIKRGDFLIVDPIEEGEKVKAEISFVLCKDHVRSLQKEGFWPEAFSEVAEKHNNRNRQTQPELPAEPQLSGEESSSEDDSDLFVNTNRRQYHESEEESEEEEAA
UniProt Q9Y262, whole entry, looked up: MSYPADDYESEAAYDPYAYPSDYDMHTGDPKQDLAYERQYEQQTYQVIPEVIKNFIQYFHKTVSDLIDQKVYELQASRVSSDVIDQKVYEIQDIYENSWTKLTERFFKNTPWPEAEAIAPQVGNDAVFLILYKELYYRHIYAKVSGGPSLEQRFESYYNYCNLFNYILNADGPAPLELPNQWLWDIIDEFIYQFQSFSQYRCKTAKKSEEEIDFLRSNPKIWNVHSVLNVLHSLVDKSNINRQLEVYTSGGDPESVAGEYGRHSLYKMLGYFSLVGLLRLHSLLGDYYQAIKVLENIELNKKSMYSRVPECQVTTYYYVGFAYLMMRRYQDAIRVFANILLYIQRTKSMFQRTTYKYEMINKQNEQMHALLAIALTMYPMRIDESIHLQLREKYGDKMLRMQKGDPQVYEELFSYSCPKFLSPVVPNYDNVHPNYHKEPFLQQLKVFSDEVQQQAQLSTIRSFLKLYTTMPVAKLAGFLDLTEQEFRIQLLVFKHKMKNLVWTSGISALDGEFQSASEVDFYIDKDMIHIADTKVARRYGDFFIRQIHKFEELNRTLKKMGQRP
UniProt Q9H9T3: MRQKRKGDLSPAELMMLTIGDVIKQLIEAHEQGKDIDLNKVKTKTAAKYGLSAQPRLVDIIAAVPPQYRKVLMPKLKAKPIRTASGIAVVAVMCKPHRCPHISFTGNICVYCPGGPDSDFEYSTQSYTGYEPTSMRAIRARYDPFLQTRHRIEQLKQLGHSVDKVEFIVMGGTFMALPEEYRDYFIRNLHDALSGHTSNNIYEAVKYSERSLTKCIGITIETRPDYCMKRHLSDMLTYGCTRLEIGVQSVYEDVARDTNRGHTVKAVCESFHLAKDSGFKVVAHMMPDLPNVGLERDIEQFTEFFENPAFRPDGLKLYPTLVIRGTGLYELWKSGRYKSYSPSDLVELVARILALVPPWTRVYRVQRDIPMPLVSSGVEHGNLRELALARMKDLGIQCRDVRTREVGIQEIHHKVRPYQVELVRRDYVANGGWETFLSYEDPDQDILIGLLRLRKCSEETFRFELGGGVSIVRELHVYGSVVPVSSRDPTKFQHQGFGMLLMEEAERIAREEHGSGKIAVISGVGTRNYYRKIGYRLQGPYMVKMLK
UniProt Q9NPA0: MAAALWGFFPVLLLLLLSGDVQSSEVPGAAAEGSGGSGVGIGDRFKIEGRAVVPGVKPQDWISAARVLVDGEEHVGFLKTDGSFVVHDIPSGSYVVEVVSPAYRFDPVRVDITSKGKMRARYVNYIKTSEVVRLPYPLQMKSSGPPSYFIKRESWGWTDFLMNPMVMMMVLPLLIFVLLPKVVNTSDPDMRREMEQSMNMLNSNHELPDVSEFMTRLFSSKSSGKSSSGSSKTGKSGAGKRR
UniProt Q8TE02: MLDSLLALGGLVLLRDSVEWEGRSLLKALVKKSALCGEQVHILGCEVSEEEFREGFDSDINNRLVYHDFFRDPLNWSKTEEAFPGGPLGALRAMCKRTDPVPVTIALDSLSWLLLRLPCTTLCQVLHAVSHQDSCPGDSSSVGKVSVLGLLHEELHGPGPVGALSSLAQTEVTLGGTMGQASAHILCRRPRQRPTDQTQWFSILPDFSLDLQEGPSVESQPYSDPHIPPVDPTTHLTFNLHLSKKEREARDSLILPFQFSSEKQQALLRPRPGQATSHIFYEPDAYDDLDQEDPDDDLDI
UniProt Q14232, whole entry, looked up: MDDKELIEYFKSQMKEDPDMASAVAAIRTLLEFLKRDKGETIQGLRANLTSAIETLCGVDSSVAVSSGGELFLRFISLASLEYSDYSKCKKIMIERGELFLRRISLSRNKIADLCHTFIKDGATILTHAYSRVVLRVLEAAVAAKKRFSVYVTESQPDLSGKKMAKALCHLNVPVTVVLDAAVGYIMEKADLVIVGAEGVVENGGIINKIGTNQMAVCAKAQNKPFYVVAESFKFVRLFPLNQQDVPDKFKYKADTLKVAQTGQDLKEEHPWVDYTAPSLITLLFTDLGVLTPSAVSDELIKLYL

Experiments:
Assay in all cases: log2 fold change, soluble protein after heating vs DMSO (PISA); higher = thermal stabilisation; K562 cells, 10 uM, 30 min; active = over 0.2 and 3.5 SD of the protein, either way, in both replicates (recomputed)
bafetinib = compound: Cc1ccc(NC(=O)c2ccc(CN3CC[C@H](N(C)C)C3)c(C(F)(F)F)c2)cc1Nc1nccc(-c2cncnc2)n1 [bafetinib]
Outline: (§1)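 Aliquots of K562 cells (2×10^6 cells/mL) treated with 10 μM compound for 30 min were heated for 3 min over 48°C-58°C. After pooling and extraction in PBS with 0.5% NP-40 at 4°C, soluble protein from a 21,000xg, 90 min spin was quantified by TMTpro 16plex LC-MS/MS with channel sums equalised. Thermal stability is expressed against control samples, from duplicates, as a log2 fold change.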

[1] = compound: Cc1cccc(CC(=O)N2CCc3c2ccc(-c2cn(C)c4ncnc(N)c24)c3F)n1
Outline: as §1

nilotinib = compound: Cc1cn(-c2cc(NC(=O)c3ccc(C)c(Nc4nccc(-c5cccnc5)n4)c3)cc(C(F)(F)F)c2)cn1 [nilotinib]
Outline: as §1

[2] = compound: Cc1nc(Nc2n[nH]c3c2CN(C(=O)N[C@H](CN(C)C)c2ccccc2)C3(C)C)c2sccc2n1
Outline: as §1

dasatinib = compound: Cc1nc(Nc2ncc(C(=O)Nc3c(C)cccc3Cl)s2)cc(N2CCN(CCO)CC2)n1 [dasatinib]
Outline: as §1

[3] = compound: Cc1ncc(-c2ccnc(Nc3ccc(S(C)(=O)=O)cc3)n2)n1C(C)C
Outline: as §1

[4] = compound: Cn1cc(-c2ccc3c(c2)CCN3C(=O)Cc2cccc(C(F)(F)F)c2)c2c(N)ncnc21
Outline: as §1

[5] = compound: Cn1cc(-c2ccc3nnc(C(F)(F)c4ccc5ncccc5c4)n3n2)cn1
Outline: as §1

tipifarnib = compound: Cn1cncc1[C@@](N)(c1ccc(Cl)cc1)c1ccc2c(c1)c(-c1cccc(Cl)c1)cc(=O)n2C [tipifarnib]
Outline: as §1

mubritinib = compound: FC(F)(F)c1ccc(/C=C/c2nc(COc3ccc(CCCCn4ccnn4)cc3)co2)cc1 [mubritinib]
Outline: as §1

Measured: log2 fold change

EEF2 (UniProt P13639)
inactive: bafetinib 0.006 | [1] 0.003 | nilotinib 0.026 | [2] 0.007 | dasatinib 0.021 | [3] 0.003 | [4] 0.005 | [5] 0.019 | tipifarnib -0.002 | mubritinib 0.016

EIF2A (UniProt Q9BY44)
inactive: bafetinib 0.082 | [1] 0.028 | nilotinib -0.019 | [2] 0.043 | dasatinib 0 | [3] 0.017 | [4] -0.077 | [5] -0.065 | tipifarnib 0.015 | mubritinib -0.056

EIF3M (UniProt Q7L2H7)
inactive: bafetinib 0.055 | [1] 0.091 | nilotinib -0.032 | [2] -0.012 | dasatinib -0.05 | [3] 0.04 | [4] -0.063 | [5] -0.087 | tipifarnib -0.095 | mubritinib -0.058

EEFSEC (UniProt P57772)
inactive: bafetinib -0.013 | [1] 0.08 | nilotinib 0.031 | [2] -0.021 | dasatinib -0.197 | [3] -0.031 | [4] -0.03 | [5] 0.004 | tipifarnib 0.002 | mubritinib 0.002

EP300 (UniProt Q09472)
inactive: bafetinib 0.018 | [1] 0.059 | nilotinib -0.025 | [2] -0.002 | dasatinib -0.012 | [3] -0.023 | [4] 0.034 | [5] -0.132 | tipifarnib -0.055 | mubritinib -0.032

EIF4EBP2 (UniProt Q13542)
inactive: bafetinib -0.152 | [1] 0 | nilotinib 0.13 | [2] -0.059 | dasatinib 0.047 | [3] 0.007 | [4] 0.087 | [5] 0.141 | tipifarnib 0.098 | mubritinib -0.038

EIF2S2 (UniProt P20042)
inactive: bafetinib 0.041 | [1] 0.008 | nilotinib -0.053 | [2] 0.024 | dasatinib 0.071 | [3] 0.018 | [4] -0.114 | [5] -0.073 | tipifarnib 0.043 | mubritinib -0.017

EIF3D (UniProt O15371)
inactive: bafetinib 0.113 | [1] 0.029 | nilotinib -0.148 | [2] -0.07 | dasatinib -0.088 | [3] 0.058 | [4] -0.035 | [5] -0.08 | tipifarnib -0.111 | mubritinib -0.103

EIF4G2 (UniProt P78344)
inactive: bafetinib 0.154 | [1] 0.001 | nilotinib -0.107 | [2] -0.191 | dasatinib -0.032 | [3] -0.048 | [4] -0.12 | [5] -0.167 | tipifarnib -0.118 | mubritinib -0.091

EMC8 (UniProt O43402)
inactive: bafetinib -0.013 | [1] 0.032 | nilotinib 0.034 | [2] -0.004 | dasatinib 0.041 | [3] -0.027 | [4] 0.046 | [5] 0.015 | tipifarnib -0.007 | mubritinib 0.043

EFHD2 (UniProt Q96C19)
inactive: bafetinib -0.076 | [1] 0.031 | nilotinib -0.087 | [2] 0.177 | dasatinib 0.002 | [3] 0.071 | [4] -0.115 | [5] 0.023 | tipifarnib -0.095 | mubritinib 0.072

EPB41 (UniProt P11171)
inactive: bafetinib 0.003 | [1] 0.004 | nilotinib 0.053 | [2] -0.048 | dasatinib -0.004 | [3] -0.044 | [4] 0.017 | [5] 0.023 | tipifarnib 0.011 | mubritinib 0.003

EFNB1 (UniProt P98172)
inactive: bafetinib 0.064 | [1] 0.046 | nilotinib 0.062 | [2] 0 | dasatinib 0.264 | [3] -0.039 | [4] 0.013 | [5] -0.07 | tipifarnib 0.05 | mubritinib 0.047

ELOC (UniProt Q15369)
inactive: bafetinib 0.003 | [1] 0.014 | nilotinib -0.028 | [2] 0.013 | dasatinib 0.032 | [3] -0.003 | [4] 0.116 | [5] 0.049 | tipifarnib -0.027 | mubritinib 0.005

ENO1 (UniProt P06733)
inactive: bafetinib -0.014 | [1] -0.039 | nilotinib 0.048 | [2] -0.007 | dasatinib 0.027 | [3] -0.012 | [4] 0.044 | [5] 0.009 | tipifarnib -0.002 | mubritinib 0.018

EML2 isoform 3 (UniProt O95834)
inactive: bafetinib -0.021 | [1] -0.003 | nilotinib 0.006 | [2] -0.018 | dasatinib -0.097 | [3] -0.061 | [4] 0.051 | [5] -0.045 | tipifarnib -0.037 | mubritinib 0.039

EIF1AD (UniProt Q8N9N8)
inactive: bafetinib -0.054 | [1] 0.003 | nilotinib -0.016 | [2] 0.011 | dasatinib 0.064 | [3] -0.028 | [4] 0.094 | [5] 0.009 | tipifarnib 0.004 | mubritinib 0.02

ELP2 isoform 6 (UniProt Q6IA86)
inactive: bafetinib -0.023 | [1] 0.038 | nilotinib -0.011 | [2] 0.021 | dasatinib 0.016 | [3] -0.008 | [4] 0 | [5] -0.029 | tipifarnib 0.019 | mubritinib -0.017

EMD (UniProt P50402)
inactive: bafetinib -0.167 | [1] -0.081 | nilotinib 0.074 | [2] -0.071 | dasatinib -0.017 | [3] -0.045 | [4] -0.005 | [5] -0.098 | tipifarnib 0.087 | mubritinib 0.031

EIF3L (UniProt Q9Y262)
inactive: bafetinib -0.014 | [1] 0.017 | nilotinib 0.003 | [2] -0.001 | dasatinib -0.046 | [3] -0.047 | [4] 0.009 | [5] 0.001 | tipifarnib -0.002 | mubritinib 0.014

ELP3 (UniProt Q9H9T3)
inactive: bafetinib -0.016 | [1] -0.004 | nilotinib 0.033 | [2] -0.043 | dasatinib 0.004 | [3] 0.026 | [4] 0.034 | [5] 0.008 | tipifarnib -0.007 | mubritinib 0.016

EIF4H (UniProt Q15056)
inactive: bafetinib -0.024 | [1] 0.026 | nilotinib 0.004 | [2] -0.105 | dasatinib -0.056 | [3] -0.047 | [4] 0.016 | [5] -0.013 | tipifarnib -0.009 | mubritinib 0.015

ELMOD2 (UniProt Q8IZ81)
inactive: bafetinib -0.056 | [1] 0.002 | nilotinib -0.03 | [2] -0.001 | dasatinib -0.062 | [3] 0.008 | [4] 0.021 | [5] -0.008 | tipifarnib 0.015 | mubritinib 0.054

Two entries drawn at random from those above, as already listed:
EMD (UniProt P50402)
inactive: bafetinib -0.167 | [1] -0.081 | nilotinib 0.074 | [2] -0.071 | dasatinib -0.017 | [3] -0.045 | [4] -0.005 | [5] -0.098 | tipifarnib 0.087 | mubritinib 0.031

ELMOD2 (UniProt Q8IZ81)
inactive: bafetinib -0.056 | [1] 0.002 | nilotinib -0.03 | [2] -0.001 | dasatinib -0.062 | [3] 0.008 | [4] 0.021 | [5] -0.008 | tipifarnib 0.015 | mubritinib 0.054

Next results follow:

EMC7 (UniProt Q9NPA0)
inactive: bafetinib -0.002 | [1] 0.002 | nilotinib 0.025 | [2] -0.005 | dasatinib 0.012 | [3] -0.012 | [4] 0.038 | [5] 0.04 | tipifarnib 0.007 | mubritinib 0.011

ELP5 isoform 4 (UniProt Q8TE02)
inactive: bafetinib -0.015 | [1] -0.039 | nilotinib 0.037 | [2] 0.009 | dasatinib 0.047 | [3] -0.031 | [4] 0.003 | [5] 0.02 | tipifarnib 0.105 | mubritinib 0.05

EHD2 (UniProt Q9NZN4)
inactive: bafetinib -0.051 | [1] 0.008 | nilotinib -0.062 | [2] 0.01 | dasatinib -0.112 | [3] 0.003 | [4] 0.012 | [5] -0.031 | tipifarnib -0.028 | mubritinib -0.061

EIF2B1 (UniProt Q14232)
inactive: bafetinib 0 | [1] 0.013 | nilotinib 0.026 | [2] 0.019 | dasatinib 0.012 | [3] -0.001 | [4] 0.001 | [5] 0.01 | tipifarnib -0.013 | mubritinib 0.036
